Test results reported in PMC12077163.
Results are given in words; binding and its absence hold for the method and conditions named. Some entries that bind do so weakly or less than the wild type.

The chains behind the UniProt entries cited, without tags or fusion partners.
UniProt C8VTS4: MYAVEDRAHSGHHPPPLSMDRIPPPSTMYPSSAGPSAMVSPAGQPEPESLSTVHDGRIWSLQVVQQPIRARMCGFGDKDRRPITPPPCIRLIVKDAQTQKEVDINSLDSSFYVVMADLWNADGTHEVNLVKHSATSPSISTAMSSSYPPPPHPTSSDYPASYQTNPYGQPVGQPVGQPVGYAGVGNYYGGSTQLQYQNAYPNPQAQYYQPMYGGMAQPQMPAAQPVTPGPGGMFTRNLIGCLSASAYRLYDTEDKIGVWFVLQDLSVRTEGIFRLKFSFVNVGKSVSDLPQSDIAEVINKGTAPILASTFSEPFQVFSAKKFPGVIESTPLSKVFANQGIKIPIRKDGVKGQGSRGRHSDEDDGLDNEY

How the values were obtained:
Experiment in all cases: two-hybrid; Gal4 AD and BD fusions co-expressed in S. cerevisiae AH109; 10-fold serial dilutions spotted on SC-Leu-Trp-His plates, 30°C; growth through the HIS3 reporter
[1] = molecular target: T1, Aspergillus nidulans VosA residues 1-190 (Aspergillus nidulans) (UniProt Q5BBX1)
T1 sequence: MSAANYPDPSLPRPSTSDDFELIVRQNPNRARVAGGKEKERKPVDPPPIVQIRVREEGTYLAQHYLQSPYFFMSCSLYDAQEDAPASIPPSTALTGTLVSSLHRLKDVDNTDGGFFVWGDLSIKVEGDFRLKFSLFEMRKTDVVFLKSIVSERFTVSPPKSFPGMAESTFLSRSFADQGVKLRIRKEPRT

[2] = molecular target: T2, Aspergillus nidulans VeA residues 1-200 (Aspergillus nidulans) (UniProt C8VTV4)
T2 sequence: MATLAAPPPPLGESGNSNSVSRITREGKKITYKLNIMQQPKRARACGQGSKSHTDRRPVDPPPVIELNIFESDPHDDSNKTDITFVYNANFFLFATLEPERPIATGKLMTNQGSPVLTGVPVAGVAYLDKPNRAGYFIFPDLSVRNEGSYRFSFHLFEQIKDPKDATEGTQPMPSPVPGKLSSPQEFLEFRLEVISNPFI

[3] = molecular target: Aspergillus nidulans VelB (velvet-like B), wild type, full length (Aspergillus nidulans) (UniProt C8VTS4)

Measured: binding

Aspergillus nidulans VelB (velvet-like B), wild type, full length (from UniProt C8VTS4 1-369)
binds: all assays above
